The supplement of paper PMC12889115
The other results are listed elsewhere or left out. These are raw signals, not scaled to a control.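 In the initial screen, polymyxin B was used at a concentration that permeabilizes Salmonella's outer membrane but not its inner membrane. Maximum growth was set by DMSO wells with or without polymyxin B. Since plates varied, data were ranked per plate, and compounds giving the lowest OD600 advanced as hits.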

Test system: Salmonella enterica serovar Typhimurium SL1344
Assay: bacterial growth OD600 after 18 h with compound and polymyxin B; higher = more bacterial growth (less inhibition)
Settings: 50 µM, Mueller-Hinton broth

SMILES | bacterial growth OD600 (polymyxin B 0.75 µg/mL) | bacterial growth OD600 (polymyxin B 1 µg/mL)
Cc1nc(N2CCC(C(=O)NCC3CC4C=CC3C43CC3)CC2)nc2cc(S(C)(=O)=O)ccc12 (centres undefined) | 0.889 | 
Cc1csc(CN(C)C(=O)c2cc(COc3cccc(F)c3)[nH]n2)n1 | 0.866 | 
O=C(CCN1CCOCC1)NC1CCCN(CCc2ccccc2)C1 (centres undefined) |  | 1.12
Cc1cnc(C)c(N2CCN(C(=O)CN3Cc4ccccc4OC(c4ccsc4)C3)CC2)n1 (centres undefined) | 0.016 | 
COc1cc(C(=O)NCCCOC(C)C)ccc1OC1CCN(C(C)=O)CC1 |  | 1.02
COCCN1C(=O)CC(CC(=O)N(C)Cc2ccc3nsnc3c2)(c2ccccc2OC)C1=O (centres undefined) | 0.772 | 
COc1ccccc1Oc1ncccc1CNC(=O)NC1CCCCC1 | 0.842 | 
CCN(CC)CCN(C)C(=O)c1cc(COc2ccc(OC)cc2Cl)on1 |  | 0.861
O=C(CCC(=O)N1CCOc2ccc(CN3CCN(c4ncccn4)CC3)cc2C1)c1ccccc1 | 0.859 | 
CCn1ncc(CN2CCC(N3CCC(C(=O)NCc4cccnc4)CC3)CC2)c1C |  | 0.746
CCOC(=O)C1(CC2CC2)CCN(Cc2ccccc2C(F)(F)F)CC1 |  | 0.859
Cc1ccc(CNC(C)c2cnc(N(C)C3CCCCC3)nc2C)o1 (centres undefined) | 0.556 | 
COC(=O)C1CCCCN1C(=O)c1c(OC)cc(=O)n2c1CCN(Cc1cccc(F)c1)CC2 (centres undefined) | 0.823 | 
COc1ccc(OC2CCN(Cc3nc(-c4ccc(Cl)cc4)oc3C)CC2)cc1 | 0.126 | 
CSc1ccc(CN2CCC(Oc3ccccc3C(=O)N3CCCC3)CC2)cc1 |  | 1.09
CCN(CC1CCCN(CCc2cccc(F)c2)C1)C(=O)c1cscn1 (centres undefined) |  | 1.12
CCc1cc(CNC(=O)c2ccc(OC3CCN(C(=O)C4CC4)CC3)cc2)on1 |  | 1.07
O=C(CCc1cccc(Cl)c1)NC1CCCN(Cc2ccccc2F)C1 (centres undefined) |  | 0.72
CCCCNC(=O)c1cn(C(C)C)cc(C(=O)N2CCN(C3CCCC3)CC2)c1=O | 1.03 | 

3 structures from above, arranged by molecular weight, descending.
SMILES | bacterial growth OD600 (polymyxin B 0.75 µg/mL) | bacterial growth OD600 (polymyxin B 1 µg/mL)
Cc1nc(N2CCC(C(=O)NCC3CC4C=CC3C43CC3)CC2)nc2cc(S(C)(=O)=O)ccc12 (centres undefined) | 0.889 | 
CCn1ncc(CN2CCC(N3CCC(C(=O)NCc4cccnc4)CC3)CC2)c1C |  | 0.746
O=C(CCN1CCOCC1)NC1CCCN(CCc2ccccc2)C1 (centres undefined) |  | 1.12
